No constants are given. Whether binding was seen depends on the method and setting. Binding calls can cover weak binding; strength is not graded here.
Legend:
Experiment in all cases: two-hybrid; yeast two-hybrid; baits in pGBKT7, preys in pGADT7; baits tested for autoactivation and toxicity; growth at four levels of initial concentration; screening in triplicate
PmDAM1 (Prunus mume) = target: T1, PmDAM1 (Prunus mume) (UniProt G1UE19)
T1 sequence: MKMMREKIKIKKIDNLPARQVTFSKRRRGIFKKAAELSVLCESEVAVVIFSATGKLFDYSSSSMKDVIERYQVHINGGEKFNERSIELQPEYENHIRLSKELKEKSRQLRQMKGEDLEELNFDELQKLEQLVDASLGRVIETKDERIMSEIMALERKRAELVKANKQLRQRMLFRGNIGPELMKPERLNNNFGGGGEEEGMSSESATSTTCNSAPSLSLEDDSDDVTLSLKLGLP

PmDAM5 (Prunus mume) = target: T2, PmDAM5 (Prunus mume) (UniProt G1UE18)
T2 sequence: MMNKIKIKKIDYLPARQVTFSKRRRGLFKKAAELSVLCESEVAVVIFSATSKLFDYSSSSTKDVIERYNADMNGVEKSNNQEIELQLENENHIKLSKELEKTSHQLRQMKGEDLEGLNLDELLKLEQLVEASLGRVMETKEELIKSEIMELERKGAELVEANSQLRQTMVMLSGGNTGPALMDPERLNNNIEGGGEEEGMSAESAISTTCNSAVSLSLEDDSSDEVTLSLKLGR

PmSVP1 (Prunus mume) = target: PmSVP1 (Prunus mume)

Molecule | binding (PmDAM1 (Prunus mume)) | binding (PmDAM5 (Prunus mume)) | binding (PmSVP1 (Prunus mume))
PmSVP1 (Prunus mume) | binds | binds weakly | 
PmSVP2 (Prunus mume) | binds | binds | 
PmDAM1 (protein, UniProt G1UE19 1-235) MKMMREKIKIKKIDNLPARQVTFSKRRRGIFKKAAELSVLCESEVAVVIFSATGKLFDYSSSSMKDVIERYQVHINGGEKFNERSIELQPEYENHIRLSKELKEKSRQLRQMKGEDLEELNFDELQKLEQLVDASLGRVIETKDERIMSEIMALERKRAELVKANKQLRQRMLFRGNIGPELMKPERLNNNFGGGGEEEGMSSESATSTTCNSAPSLSLEDDSDDVTLSLKLGLP |  |  | binds
PmDAM5 (protein, UniProt G1UE18 1-234) MMNKIKIKKIDYLPARQVTFSKRRRGLFKKAAELSVLCESEVAVVIFSATSKLFDYSSSSTKDVIERYNADMNGVEKSNNQEIELQLENENHIKLSKELEKTSHQLRQMKGEDLEGLNLDELLKLEQLVEASLGRVMETKEELIKSEIMELERKGAELVEANSQLRQTMVMLSGGNTGPALMDPERLNNNIEGGGEEEGMSAESAISTTCNSAVSLSLEDDSSDEVTLSLKLGR |  |  | binds

From publication PMC9763448
